Values quoted from earlier work, collected in patent US20200000750A1, “Composition for Treating Acute and Chronic Pain” (priority 2018, published 2020).

Test system: acute attacks of gout
Conditions: literature; colchiceine at 5 to 8 mg orally

COc1cc2c(c(OC)c1OC)-c1ccc(SC)c(=O)cc1[C@@H](N)CC2 [desacetylthiocolchicine]
anti-gout effect in acute attacks of gout: equivocal results
